{"source": "PubChem BioAssay AID1259308 (NCATS, 2017)", "test": "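Genes whose loss raises luciferase production in HEK293 cells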 (primary screen)", "cells": "human HEK293 embryonic kidney cells stably expressing firefly luciferase (HEK-CMV-Luc2-Hygro)", "reagents": "single siRNA against human genes, 0.8 pmol siRNA per well", "time to read-out": "72 h", "measured": "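Reporter luminescence and viable-cell signal on separate replicate plates, given as percent of non-targeting control and median/MAD z-scores, plus per-cell luciferase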", "direction": "total luciferase, z-score: higher = more reporter protein produced", "active means": "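An siRNA counts as active if its total luciferase robust z-score exceeds 3; genes with two or more such siRNAs out of three were retested with fresh siRNAs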", "calls": "active = raised luciferase; inactive = no rise", "note": "Here is a random part of about 59,000 deposited reagents. In the full data, about 1,510 (2.6%) were called active. 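Calls use total luciferase alone and ignore viability, so some active siRNAs may act by altering cell number.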 Unmarked entries are inactive. The numbers tell different reagents against one gene apart. Further read-outs or replicates are left out here."}
{"target gene": "PLEKHA1", "reagent no.": 1, "total luciferase, z-score": 0.429}
{"target gene": "PLEKHA1", "reagent no.": 2, "total luciferase, z-score": -1.72}
{"target gene": "PLEKHA1", "reagent no.": 3, "total luciferase, z-score": -1.17}
{"target gene": "TXNDC17", "reagent no.": 1, "total luciferase, z-score": 1.85}
{"target gene": "TXNDC17", "reagent no.": 2, "total luciferase, z-score": 0.548}
{"target gene": "TXNDC17", "reagent no.": 3, "total luciferase, z-score": 1.4}
{"target gene": "PALM2AKAP2", "reagent no.": 1, "total luciferase, z-score": -0.355}
{"target gene": "PALM2AKAP2", "reagent no.": 2, "total luciferase, z-score": -0.169}
{"target gene": "PALM2AKAP2", "reagent no.": 3, "total luciferase, z-score": 0.0107}
{"target gene": "PALM2AKAP2", "reagent no.": 4, "total luciferase, z-score": -0.362}
{"target gene": "PALM2AKAP2", "reagent no.": 5, "total luciferase, z-score": 0.189}
{"target gene": "PALM2AKAP2", "reagent no.": 6, "total luciferase, z-score": 0.603}
{"target gene": "CAPS2", "reagent no.": 1, "total luciferase, z-score": -0.489}
{"target gene": "CAPS2", "reagent no.": 2, "total luciferase, z-score": 0.205}
{"target gene": "CAPS2", "reagent no.": 3, "total luciferase, z-score": 0.246}
{"target gene": "WBP2P1", "reagent no.": 1, "total luciferase, z-score": 0.111}
{"target gene": "WBP2P1", "reagent no.": 2, "total luciferase, z-score": 1.31}
{"target gene": "WBP2P1", "reagent no.": 3, "total luciferase, z-score": 0.517}
{"target gene": "LURAP1", "reagent no.": 1, "total luciferase, z-score": 0.736}
{"target gene": "LURAP1", "reagent no.": 2, "total luciferase, z-score": -1.78}
{"target gene": "LURAP1", "reagent no.": 3, "total luciferase, z-score": -0.0413}

2 entries from above, ordered by “total luciferase, z-score”, high to low.
{"target gene": "PALM2AKAP2", "reagent no.": 3, "total luciferase, z-score": 0.0107}
{"target gene": "PALM2AKAP2", "reagent no.": 4, "total luciferase, z-score": -0.362}
